Results are given in words; binding and its absence hold for the method and conditions named. In cells and extracts the contact can be indirect. Some results given as binding are weak or reduced against the parent protein; the word gives no strength. Sequences can lack the tags named with a protein.
Biological target: T1, CD2 Binding Protein 2 (CD2BP2/U5-52K), FLAG-tagged (human) (UniProt O95400)
T1 sequence: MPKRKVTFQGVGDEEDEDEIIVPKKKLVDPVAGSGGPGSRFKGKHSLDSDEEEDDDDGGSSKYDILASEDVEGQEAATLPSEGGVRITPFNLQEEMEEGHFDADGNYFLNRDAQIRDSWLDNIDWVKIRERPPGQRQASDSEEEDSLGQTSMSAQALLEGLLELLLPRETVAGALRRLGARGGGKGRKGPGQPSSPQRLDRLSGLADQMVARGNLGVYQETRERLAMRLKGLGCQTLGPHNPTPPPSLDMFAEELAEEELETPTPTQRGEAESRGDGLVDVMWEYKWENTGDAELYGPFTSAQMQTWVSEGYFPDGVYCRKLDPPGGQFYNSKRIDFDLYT
Experiment: cross-linking; anti-FLAG IP of CD2BP2-FLAG from HEK293T CD2BP2-/- lysate (~100 mg protein), on-bead crosslinking with DSSO, tryptic digest, LC-MS2-MS3, XlinkX, 1 % FDR; two technical and two biological replicates

binding: binds
B1: Prp6 (protein, UniProt O94906 1-941)
chain: MNKKKKPFLGMPAPLGYVPGLGRGATGFTTRSDIGPARDANDPVDDRHAPPGKRTVGDQMKKNQAADDDDEDLNDTNYDEFNGYAGSLFSSGPYEKDDEEADAIYAALDKRMDERRKERREQREKEEIEKYRMERPKIQQQFSDLKRKLAEVTEEEWLSIPEVGDARNKRQRNPRYEKLTPVPDSFFAKHLQTGENHTSVDPRQTQFGGLNTPYPGGLNTPYPGGMTPGLMTPGTGELDMRKIGQARNTLMDMRLSQVSDSVSGQTVVDPKGYLTDLNSMIPTHGGDINDIKKARLLLKSVRETNPHHPPAWIASARLEEVTGKLQVARNLIMKGTEMCPKSEDVWLEAARLQPGDTAKAVVAQAVRHLPQSVRIYIRAAELETDIRAKKRVLRKALEHVPNSVRLWKAAVELEEPEDARIMLSRAVECCPTSVELWLALARLETYENARKVLNKARENIPTDRHIWITAAKLEEANGNTQMVEKIIDRAITSLRANGVEINREQWIQDAEECDRAGSVATCQAVMRAVIGIGIEEEDRKHTWMEDADSCVAHNALECARAIYAYALQVFPSKKSVWLRAAYFEKNHGTRESLEALLQRAVAHCPKAEVLWLMGAKSKWLAGDVPAARSILALAFQANPNSEEIWLAAVKLESENDEYERARRLLAKARSSAPTARVFMKSVKLEWVQDNIRAAQDLCEEALRHYEDFPKLWMMKGQIEEQKEMMEKAREAYNQGLKKCPHSTPLWLLLSRLEEKIGQLTRARAILEKSRLKNPKNPGLWLESVRLEYRAGLKNIANTLMAKALQECPNSGILWSEAIFLEARPQRRTKSVDALKKCEHDPHVLLAVAKLFWSQRKITKAREWFHRTVKIDSDLGDAWAFFYKFELQHGTEEQQEEVRKRCESAEPRHGELWCAVSKDIANWQKKIGDILRLVAGRIKNTF

From paper PMC11412891
